Changes are numbered by the printed parent chain. Read-outs that look alike come from different tables or passages of the source. These are yes or no findings as the source states them, for the method shown. In cells and extracts the contact can be indirect. Some entries that bind do so weakly or less than the wild type.
T1: SPRTN-wt-cSSH (human) (UniProt Q9H040)
T1 sequence: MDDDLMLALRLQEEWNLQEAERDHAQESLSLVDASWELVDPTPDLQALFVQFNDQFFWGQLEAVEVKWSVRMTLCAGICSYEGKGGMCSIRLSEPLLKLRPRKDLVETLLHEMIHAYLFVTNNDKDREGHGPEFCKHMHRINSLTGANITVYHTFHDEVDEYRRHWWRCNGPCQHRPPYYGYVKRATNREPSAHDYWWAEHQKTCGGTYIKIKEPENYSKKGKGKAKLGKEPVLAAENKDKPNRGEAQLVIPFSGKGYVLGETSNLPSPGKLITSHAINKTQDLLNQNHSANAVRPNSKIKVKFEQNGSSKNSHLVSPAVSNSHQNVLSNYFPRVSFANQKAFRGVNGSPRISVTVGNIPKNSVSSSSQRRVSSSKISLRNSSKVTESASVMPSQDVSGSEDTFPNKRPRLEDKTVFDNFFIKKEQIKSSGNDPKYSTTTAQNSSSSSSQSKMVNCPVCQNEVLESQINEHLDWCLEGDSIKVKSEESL

Chains of the proteins cited; added tags and fusions are not shown.
UniProt Q13535: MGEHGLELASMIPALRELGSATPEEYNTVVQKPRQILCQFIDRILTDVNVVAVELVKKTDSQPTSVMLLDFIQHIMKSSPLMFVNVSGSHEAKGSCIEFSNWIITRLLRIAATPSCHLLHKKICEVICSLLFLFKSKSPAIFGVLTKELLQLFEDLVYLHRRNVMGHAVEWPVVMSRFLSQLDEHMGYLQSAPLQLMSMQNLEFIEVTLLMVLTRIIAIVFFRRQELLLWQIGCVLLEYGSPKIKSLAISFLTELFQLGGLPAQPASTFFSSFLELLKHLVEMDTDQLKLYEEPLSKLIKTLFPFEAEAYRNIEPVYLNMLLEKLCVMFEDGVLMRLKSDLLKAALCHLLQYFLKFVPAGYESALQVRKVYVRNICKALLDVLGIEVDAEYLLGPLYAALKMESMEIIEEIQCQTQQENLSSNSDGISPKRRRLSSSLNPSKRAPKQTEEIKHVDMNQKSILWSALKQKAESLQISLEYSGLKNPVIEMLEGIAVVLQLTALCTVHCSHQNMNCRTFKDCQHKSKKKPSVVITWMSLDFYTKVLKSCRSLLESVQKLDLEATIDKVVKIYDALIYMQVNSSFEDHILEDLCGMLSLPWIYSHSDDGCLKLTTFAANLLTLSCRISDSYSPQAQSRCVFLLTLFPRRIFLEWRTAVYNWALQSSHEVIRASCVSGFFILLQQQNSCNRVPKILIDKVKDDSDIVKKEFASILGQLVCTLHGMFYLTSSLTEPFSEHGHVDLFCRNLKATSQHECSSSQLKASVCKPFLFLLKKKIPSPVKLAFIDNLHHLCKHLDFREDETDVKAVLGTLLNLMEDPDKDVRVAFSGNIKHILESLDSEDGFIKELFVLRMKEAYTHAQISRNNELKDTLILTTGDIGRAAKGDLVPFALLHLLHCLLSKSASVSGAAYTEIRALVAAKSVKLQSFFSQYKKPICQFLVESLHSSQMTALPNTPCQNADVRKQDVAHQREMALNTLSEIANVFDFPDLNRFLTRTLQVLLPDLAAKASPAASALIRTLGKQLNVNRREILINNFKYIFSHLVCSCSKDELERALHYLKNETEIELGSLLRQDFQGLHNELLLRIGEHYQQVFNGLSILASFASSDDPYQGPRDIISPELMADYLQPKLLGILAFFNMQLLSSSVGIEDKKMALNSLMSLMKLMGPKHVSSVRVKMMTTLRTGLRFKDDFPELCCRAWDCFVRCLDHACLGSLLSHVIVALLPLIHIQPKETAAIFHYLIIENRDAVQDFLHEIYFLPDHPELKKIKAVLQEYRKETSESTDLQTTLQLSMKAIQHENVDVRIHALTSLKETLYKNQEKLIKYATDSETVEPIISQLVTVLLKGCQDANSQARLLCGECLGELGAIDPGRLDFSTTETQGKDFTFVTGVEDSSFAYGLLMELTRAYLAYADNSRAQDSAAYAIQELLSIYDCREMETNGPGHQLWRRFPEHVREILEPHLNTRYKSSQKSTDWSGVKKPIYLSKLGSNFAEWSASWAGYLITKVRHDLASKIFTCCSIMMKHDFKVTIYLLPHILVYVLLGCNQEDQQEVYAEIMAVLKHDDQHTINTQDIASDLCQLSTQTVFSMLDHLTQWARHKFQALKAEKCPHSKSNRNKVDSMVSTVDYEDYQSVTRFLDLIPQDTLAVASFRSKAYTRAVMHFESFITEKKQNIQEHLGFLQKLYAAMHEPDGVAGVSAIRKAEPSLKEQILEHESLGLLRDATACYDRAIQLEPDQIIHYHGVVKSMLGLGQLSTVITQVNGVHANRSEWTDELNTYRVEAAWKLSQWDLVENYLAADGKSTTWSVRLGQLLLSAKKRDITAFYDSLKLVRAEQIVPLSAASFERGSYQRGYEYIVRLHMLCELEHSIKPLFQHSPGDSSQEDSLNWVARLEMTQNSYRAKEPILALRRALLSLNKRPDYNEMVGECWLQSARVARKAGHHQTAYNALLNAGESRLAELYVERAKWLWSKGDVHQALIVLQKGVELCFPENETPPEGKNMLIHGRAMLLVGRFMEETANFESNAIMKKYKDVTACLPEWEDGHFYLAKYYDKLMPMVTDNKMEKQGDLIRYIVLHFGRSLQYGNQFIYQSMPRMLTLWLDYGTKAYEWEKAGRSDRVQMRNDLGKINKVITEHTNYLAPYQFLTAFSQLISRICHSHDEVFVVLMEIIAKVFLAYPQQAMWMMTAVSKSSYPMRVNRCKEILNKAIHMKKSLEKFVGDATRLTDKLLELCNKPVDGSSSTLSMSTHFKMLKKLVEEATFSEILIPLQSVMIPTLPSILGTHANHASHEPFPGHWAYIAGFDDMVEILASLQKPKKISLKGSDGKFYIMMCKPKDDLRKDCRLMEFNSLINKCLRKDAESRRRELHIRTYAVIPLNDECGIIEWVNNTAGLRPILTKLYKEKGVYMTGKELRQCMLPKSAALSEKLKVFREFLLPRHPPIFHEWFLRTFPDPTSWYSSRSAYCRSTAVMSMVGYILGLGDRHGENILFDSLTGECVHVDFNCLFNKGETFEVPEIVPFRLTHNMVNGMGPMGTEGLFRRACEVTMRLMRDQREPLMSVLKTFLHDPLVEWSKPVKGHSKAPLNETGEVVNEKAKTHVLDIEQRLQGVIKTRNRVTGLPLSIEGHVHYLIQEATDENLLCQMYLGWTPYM

T2: SPRTN-Y117C-cSSH (human) (UniProt Q9H040)
T2 sequence: T1 sequence with Y117C

B1: MCM3 (protein, UniProt P25205 1-808)
chain: MAGTVVLDDVELREAQRDYLDFLDDEEDQGIYQSKVRELISDNQYRLIVNVNDLRRKNEKRANRLLNNAFEELVAFQRALKDFVASIDATYAKQYEEFYVGLEGSFGSKHVSPRTLTSCFLSCVVCVEGIVTKCSLVRPKVVRSVHYCPATKKTIERRYSDLTTLVAFPSSSVYPTKDEENNPLETEYGLSVYKDHQTITIQEMPEKAPAGQLPRSVDVILDDDLVDKAKPGDRVQVVGTYRCLPGKKGGYTSGTFRTVLIACNVKQMSKDAQPSFSAEDIAKIKKFSKTRSKDIFDQLAKSLAPSIHGHDYVKKAILCLLLGGVERDLENGSHIRGDINILLIGDPSVAKSQLLRYVLCTAPRAIPTTGRGSSGVGLTAAVTTDQETGERRLEAGAMVLADRGVVCIDEFDKMSDMDRTAIHEVMEQGRVTIAKAGIHARLNARCSVLAAANPVYGRYDQYKTPMENIGLQDSLLSRFDLLFIMLDQMDPEQDREISDHVLRMHRYRAPGEQDGDAMPLGSAVDILATDDPNFSQEDQQDTQIYEKHDNLLHGTKKKKEKMVSAAFMKKYIHVAKIIKPVLTQESATYIAEEYSRLRSQDSMSSDTARTSPVTARTLETLIRLATAHAKARMSKTVDLQDAEEAVELVQYAYFKKVLEKEKKRKKRSEDESETEDEEEKSQEDQEQKRKRRKTRQPDAKDGDSYDPYDFSDTEEEMPQVHTPKTADSQETKESQKVELSESRLKAFKVALLDVFREAHAQSIGMNRLTESINRDSEEPFSSVEIQAALSKMQDDNQVMVSEGIIFLI

Legend:
Test in all cases: co-IP; SPRTN-cSSH captured on Strep-Tactin sepharose from non-denaturing HEK293 whole cell lysates (1% Triton, 150 mM NaCl; pellet digested with Benzonase and pooled), 2 h at 4 °C, washes with 0.05% NP-40; immunoblot; cells under normal conditions or with low-dose CPT (100 nM)
SPRTN-wt-cSSH (human) [1] = molecular target: T1, SPRTN-wt-cSSH (human)
SPRTN-wt-cSSH (human) [2] = molecular target: T1, SPRTN-wt-cSSH (human); remark: listed apart in the source
SPRTN-Y117C-cSSH (human) = molecular target: T2, SPRTN-Y117C-cSSH (human)

Molecule | binding (SPRTN-wt-cSSH (human) [1]) | binding (SPRTN-wt-cSSH (human) [2]) | binding (SPRTN-Y117C-cSSH (human))
ATR (from UniProt Q13535 1-2644) (enzyme) | no binding | – | –
B1 | – | binds | binds

From PMC6637133, “SPRTN protease and checkpoint kinase 1 cross-activation loop safeguards DNA replication” (Nature Communications, 2019)
